Results as given in paper PMC11109262.
No constants are given. Whether binding was seen depends on the method and setting. In cells and extracts the contact can be indirect. Binding can be weak; no strength is given.

Molecular target: cofilin (mouse (endogenous in retina))
Test: co-IP; wild type murine retinal lysates; magnetic beads coated (+) or uncoated (-) with cofilin antibody; RPGR's retinal specific isoform detected in the bound fraction with GT335 antibody

binding: binds
B1: retinitis pigmentosa GTPase regulator (RPGR), retinal specific isoform (protein, UniProt Q9R0X5-5 1-1305)
chain: MAESESLVPDTGAVFTFGKTKFAENIPSKFWFKNDIPICLSCGDEHTAIVTGNNKLYMFGSNNWGQLGLGSKAAIIKPTCIKALKPEKVKLAACGRNHTLVSTDTGGVYAAGGNNEGQLGLGDTDDRDTFHQIVFFTPADTIKQLSAGANTSAALTEDGKLFMWGDNSEGQIGLEDKSNVCIPHEVTVGKPISWISCGYYHSAFVTMDGELYTFGEPENGKLGLPNELLMNHRSPQRVLGIPERVIQVACGGGHTVVLTEKVVYAFGLGQFGQLGLGTFLFETSEPKIIERIKDQKICHISCGENHTALMTELGLLYTFGDGRHGKLGLGMENFTNQFFPTLCSNFLRFAVQLIACGGCHMLVFATPRLGTIDEPKFEDVYEPYISTGSFSINDLSPRSSLNRSLSARLRRRERERPPCSASMVGTLPPLEGTSASTSAYFYPSSPPFHLSVNNYPEKSPSESMEPLDSDYFEDKMNKDTETENSSAVDSENFGETNDILNMTHMMTTSSNEKLLDFSPIQKQQNQDTFEKVMESTPCTENEDSYEYEEMSKIKEVTVYKQYLAKGIYMIRPAEILEAFSDEEVGNGLDQVEEPRVFTDGKGLQSKQVGKESDEEIVSEKKTEVMEVADVKKIRESEENSKSDSLFDDLPDKTMNSESEDNKDIAEERRSSEQNMTFDSETELVEEPDSYMECERHSEQDSAEELEQPKLVEYSSEEKDEKDEKDDDEVETENLWYDRNCTEQETENVFRATRFFPKFDLKHDHLSGIPEEQEGPEDSEGNVVVEQVVQAQKENLEFEGDRKEAKAEAPSDVITEKEVSESERESGGEREDRSEGDGDQICEKVSLETEHLQRAQGKQERKKGKDKRARCILDMKEREEDKGWEKGSEGGDKMKRDEGNQEKRKKEMEERDAGDERSEEEEGEEEEPEEGEKEEGGEEEEGTSEDQSREDEGDRQEKEGRREGKGRQEDGREGWKEGEEQEQEEEIEEGEEEEREGEEEGGEEEGEGEGEREEEGEGEEEGEGEEEGEGEEEGEGEEEGEGEEEGEGEEEGEGEEEGEGEEDGEGEEDGEGEEEGEGEEEGEREEDGEGEEDGEGEEEGEGEEEGEGEEEGEGEEEGEGEGEEEGEGEWEGEEEGEGEEEGEGEEEGEGEEEGEGEEEGEGEEEGGEDDEGEELEKKKGDITEEEEEEEEGQEGDEREREEHGSCEDDVEEDKTYDREEGEYKKAIGKVADNESQEDRKQSPKVSKINGSMKYGRHGTYSEKPITNLGKTQPSKMPMESRQLVENGLLGSERFWSDVLPLYLELK
modifications: glutamylated (detected using GT335 antibody); residues not stated
